Paper PMC10204293
No constants are given. Whether binding was seen depends on the method and setting. Binding seen in cells or lysates may run through a third protein. Some binding calls cover weakened binding; strength is not graded here.

Chains of the proteins cited; added tags and fusions are not shown.
UniProt Q93009: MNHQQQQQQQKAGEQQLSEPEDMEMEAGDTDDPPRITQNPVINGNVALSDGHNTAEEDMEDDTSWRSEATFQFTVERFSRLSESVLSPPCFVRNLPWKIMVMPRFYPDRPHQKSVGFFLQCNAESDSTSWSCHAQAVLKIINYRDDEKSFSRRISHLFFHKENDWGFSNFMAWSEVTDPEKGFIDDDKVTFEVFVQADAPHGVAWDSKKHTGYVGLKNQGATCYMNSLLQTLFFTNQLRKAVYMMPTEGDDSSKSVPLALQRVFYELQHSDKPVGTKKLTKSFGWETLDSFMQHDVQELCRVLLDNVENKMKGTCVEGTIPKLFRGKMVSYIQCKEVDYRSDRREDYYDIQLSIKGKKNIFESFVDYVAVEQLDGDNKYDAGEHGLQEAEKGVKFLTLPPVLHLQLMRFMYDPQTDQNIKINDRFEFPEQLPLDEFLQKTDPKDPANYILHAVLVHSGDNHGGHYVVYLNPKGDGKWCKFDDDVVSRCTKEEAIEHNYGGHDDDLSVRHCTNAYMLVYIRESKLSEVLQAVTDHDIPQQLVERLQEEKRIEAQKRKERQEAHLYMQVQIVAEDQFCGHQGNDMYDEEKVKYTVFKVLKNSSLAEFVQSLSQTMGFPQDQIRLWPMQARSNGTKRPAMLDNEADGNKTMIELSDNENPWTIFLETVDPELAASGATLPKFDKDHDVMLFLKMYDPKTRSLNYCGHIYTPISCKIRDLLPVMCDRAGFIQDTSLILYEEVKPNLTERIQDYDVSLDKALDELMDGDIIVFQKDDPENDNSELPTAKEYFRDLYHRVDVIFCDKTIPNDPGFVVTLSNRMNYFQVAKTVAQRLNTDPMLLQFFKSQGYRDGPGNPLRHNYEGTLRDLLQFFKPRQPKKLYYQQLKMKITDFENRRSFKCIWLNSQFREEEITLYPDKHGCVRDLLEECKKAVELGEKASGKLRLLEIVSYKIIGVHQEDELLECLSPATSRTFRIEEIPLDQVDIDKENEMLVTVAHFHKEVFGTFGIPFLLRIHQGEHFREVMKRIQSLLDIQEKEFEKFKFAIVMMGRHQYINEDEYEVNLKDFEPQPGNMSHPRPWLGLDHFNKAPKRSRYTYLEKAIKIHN
UniProt Q9UER7: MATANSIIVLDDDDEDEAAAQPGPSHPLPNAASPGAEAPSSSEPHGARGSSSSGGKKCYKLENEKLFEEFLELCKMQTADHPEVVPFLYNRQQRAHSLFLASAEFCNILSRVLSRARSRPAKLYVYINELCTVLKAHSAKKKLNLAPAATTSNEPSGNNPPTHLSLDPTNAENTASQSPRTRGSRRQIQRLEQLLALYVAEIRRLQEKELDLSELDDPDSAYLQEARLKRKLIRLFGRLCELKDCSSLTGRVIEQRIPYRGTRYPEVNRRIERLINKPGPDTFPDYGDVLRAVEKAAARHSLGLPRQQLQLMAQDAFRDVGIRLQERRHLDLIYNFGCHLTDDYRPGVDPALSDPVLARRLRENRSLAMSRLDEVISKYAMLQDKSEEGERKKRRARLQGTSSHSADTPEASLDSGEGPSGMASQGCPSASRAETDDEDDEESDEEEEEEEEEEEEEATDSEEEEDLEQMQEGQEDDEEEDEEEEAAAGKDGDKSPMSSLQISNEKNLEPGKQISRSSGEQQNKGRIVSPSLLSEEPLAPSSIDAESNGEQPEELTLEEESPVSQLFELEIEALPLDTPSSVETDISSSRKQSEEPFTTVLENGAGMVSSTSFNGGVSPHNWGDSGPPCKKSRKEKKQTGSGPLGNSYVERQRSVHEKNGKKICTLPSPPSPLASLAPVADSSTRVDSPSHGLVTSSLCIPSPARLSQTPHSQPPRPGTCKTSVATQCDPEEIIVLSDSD

What was measured:
[1] = target: herpesvirus-associated ubiquitin-specific protease (HAUSP) (human (endogenous in MCF-7)) (UniProt Q93009); assay: co-IP; MCF-7 cells with or without S100A6 transfection, lysates in the presence of CaCl2 or EGTA; precipitation with anti-S100A6, anti-MDM2, anti-HAUSP or IgG and A/G beads overnight at 4 °C; western blot
[2] = target: murine double minute 2 (MDM2) (human (endogenous in MCF-7)) (UniProt Q00987); assay: as above

death domain-associated protein (DAXX) (from UniProt Q9UER7 1-740)
binding [1]: binds | binding [2]: binds
